# In the supplement of paper PMC8728848:
# The other results are listed elsewhere or left out.
# B1: SynCAM (Mus musculus) (protein)
# chain: MASAVLPSGSQCAAAAAVAAAAAPPGLRLRLLLLLLSAAALIPTGDGQNLFTKDVTVIEGEVATISCQVNKSDDSVIQLLNPNRQTIYFRDFRPLKDSRFQLLNFSSSELKVSLTNVSISDEGRYFCQLYTDPPQESYTTITVLVPPRNLMIDIQKDTAVEGEEIEVNCTAMASKPATTIRWFKGNKELKGKSEVEEWSDMYTVTSQLMLKVHKEDDGVPVICQVEHPAVTGNLQTQRYLEVQYKPQVHIQMTYPLQGLTREGDAFELTCEAIGKPQPVMVTWVRVDDEMPQHAVLSGPNLFINNLNKTDNGTYRCEASNIVGKAHSDYMLYVYDPPTTIPPP
# Columns and labels:
# Assay in all cases: glycan array binding signal (z-score within array); higher = stronger binding
# Conditions in all cases: glycan notation: IUPAC condensed, linker removed
# [1] = target: Neu5Ac(a2-6)Gal(b1-4)GlcNAc(b1-6)GalNAc
# Procedure, shortened: (§1)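 Glycan array data were curated from 3228 arrays in the Consortium for Functional Glycomics database and kept only where the protein sequence was available. Glycan names were converted to IUPAC-condensed notation, and columns mapping to the same glycan were averaged. The binding signal is a within-array Z-score, averaged across arrays of the same protein sequence at different concentrations or buffers and across linkers. Negative Z-scores can be read as non-binding.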
# [2] = target: Neu5Ac(a2-6)Gal(b1-4)GlcNAc(b1-6)[Gal(b1-3)GlcNAc(b1-3)]Gal(b1-4)Glc
# Procedure, shortened: as §1
# [3] = target: Neu5Ac(a2-6)Gal(b1-4)GlcNAc(b1-6)[Gal(b1-3)]GalNAc
# Procedure, shortened: as §1
# [4] = target: Neu5Ac(a2-6)Gal(b1-4)GlcNAc6S
# Procedure, shortened: as §1
# [5] = target: Neu5Ac(a2-6)GalNAc
# Procedure, shortened: as §1
# [6] = target: Neu5Ac(a2-6)GalNAc(b1-4)GlcNAc
# Procedure, shortened: as §1
# [7] = target: Neu5Ac(a2-6)GalNAc(b1-4)GlcNAc6S
# Procedure, shortened: as §1
# [8] = target: Neu5Ac(a2-6)GlcNAc(b1-4)GlcNAc
# Procedure, shortened: as §1
# [9] = target: Neu5Ac(a2-6)GlcNAc(b1-4)GlcNAc(b1-4)GlcNAc
# Procedure, shortened: as §1
# [10] = target: Neu5Ac(a2-8)Neu5Ac
# Procedure, shortened: as §1
# [11] = target: Neu5Ac(a2-8)Neu5Ac(a2-3)Gal(b1-3)GalNAc(b1-4)[Neu5Ac(a2-3)]Gal(b1-4)Glc
# Procedure, shortened: as §1
# [12] = target: Neu5Ac(a2-8)Neu5Ac(a2-3)Gal(b1-3)GalNAc(b1-4)[Neu5Ac(a2-8)Neu5Ac(a2-3)]Gal(b1-4)Glc
# Procedure, shortened: as §1
# [13] = target: Neu5Ac(a2-8)Neu5Ac(a2-3)Gal(b1-4)Glc
# Procedure, shortened: as §1
# [14] = target: Neu5Ac(a2-8)Neu5Ac(a2-3)Gal(b1-4)GlcNAc
# Procedure, shortened: as §1
# [15] = target: Neu5Ac(a2-8)Neu5Ac(a2-3)[Gal(b1-3)GalNAc(b1-4)]Gal(b1-4)Glc
# Procedure, shortened: as §1
# [16] = target: Neu5Ac(a2-8)Neu5Ac(a2-3)[GalNAc(b1-4)]Gal(b1-4)Glc
# Procedure, shortened: as §1
# [17] = target: Neu5Ac(a2-8)Neu5Ac(a2-8)Neu5Ac
# Procedure, shortened: as §1
# [18] = target: Neu5Ac(a2-8)Neu5Ac(a2-8)Neu5Ac(a2-3)Gal(b1-4)Glc
# Procedure, shortened: as §1
# [19] = target: Neu5Ac(a2-8)Neu5Ac(a2-8)Neu5Ac(a2-3)[Gal(b1-3)GalNAc(b1-4)]Gal(b1-4)Glc
# Procedure, shortened: as §1
# [20] = target: Neu5Ac(a2-8)Neu5Ac(a2-8)Neu5Ac(a2-3)[GalNAc(b1-4)]Gal(b1-4)Glc
# Procedure, shortened: as §1
# [21] = target: Neu5Ac(a2-8)Neu5Ac(a2-8)Neu5Ac(a2-8)Neu5Ac(a2-3)[GalNAc(b1-4)]Gal(b1-4)Glc
# Procedure, shortened: as §1
# [22] = target: Neu5Ac(a2-8)Neu5Gc(a2-3)Gal(b1-4)GlcNAc
# Procedure, shortened: as §1
# [23] = target: Neu5Ac(b2-6)Gal(b1-4)GlcNAc
# Procedure, shortened: as §1
# [24] = target: Neu5Ac(b2-6)GalNAc
# Procedure, shortened: as §1
# [25] = target: Neu5Ac9Ac(a2-3)Gal(b1-3)GlcNAc
# Procedure, shortened: as §1
# [26] = target: Neu5Ac9Ac(a2-3)Gal(b1-4)GlcNAc
# Procedure, shortened: as §1
# [27] = target: Neu5Ac9Ac(a2-6)Gal(b1-4)GlcNAc
# Procedure, shortened: as §1
# [28] = target: Neu5Gc(a2-3)Gal(b1-3)GlcNAc
# Procedure, shortened: as §1
# [29] = target: Neu5Gc(a2-3)Gal(b1-3)[Fuc(a1-4)]GlcNAc
# Procedure, shortened: as §1
# [30] = target: Neu5Gc(a2-3)Gal(b1-4)Glc
# Procedure, shortened: as §1
# [31] = target: Neu5Gc(a2-3)Gal(b1-4)GlcNAc
# Procedure, shortened: as §1
# [32] = target: Neu5Gc(a2-3)Gal(b1-4)GlcNAc(b1-3)Gal(b1-4)GlcNAc(b1-2)Man(a1-3)[Neu5Gc(a2-3)Gal(b1-4)GlcNAc(b1-3)Gal(b1-4)GlcNAc(b1-2)Man(a1-6)]Man(b1-4)GlcNAc(b1-4)GlcNAc
# Procedure, shortened: as §1
# [33] = target: Neu5Gc(a2-3)Gal(b1-4)[Fuc(a1-3)]GlcNAc
# Procedure, shortened: as §1
# [34] = target: Neu5Gc(a2-6)Gal(b1-4)GlcNAc
# Procedure, shortened: as §1
# [35] = target: Neu5Gc(a2-6)GalNAc
# Procedure, shortened: as §1
# [36] = target: Neu5Gc(a2-8)Neu5Ac(a2-3)Gal(b1-4)GlcNAc
# Procedure, shortened: as §1
# [37] = target: Neu5Gc(a2-8)Neu5Gc(a2-3)Gal(b1-4)GlcNAc
# Procedure, shortened: as §1
# [38] = target: Neu5Gc(a2-8)Neu5Gc(a2-3)Gal(b1-4)GlcNAc(b1-3)Gal(b1-4)GlcNAc
# Procedure, shortened: as §1
binder,measurement,setting,value
B1,glycan array binding signal (z-score),[1],-1.03
same,glycan array binding signal (z-score),[2],-1.71
same,glycan array binding signal (z-score),[3],-0.68
same,glycan array binding signal (z-score),[4],-0.103
same,glycan array binding signal (z-score),[5],-1.22
same,glycan array binding signal (z-score),[6],-0.937
same,glycan array binding signal (z-score),[7],0.811
same,glycan array binding signal (z-score),[8],-0.658
same,glycan array binding signal (z-score),[9],-0.4
same,glycan array binding signal (z-score),[10],0.392
same,glycan array binding signal (z-score),[11],1.02
same,glycan array binding signal (z-score),[12],-0.014
same,glycan array binding signal (z-score),[13],2.34
same,glycan array binding signal (z-score),[14],-0.664
same,glycan array binding signal (z-score),[15],0.872
same,glycan array binding signal (z-score),[16],-0.675
same,glycan array binding signal (z-score),[17],-0.097
same,glycan array binding signal (z-score),[18],0.525
same,glycan array binding signal (z-score),[19],-0.817
same,glycan array binding signal (z-score),[20],-0.674
same,glycan array binding signal (z-score),[21],0.484
same,glycan array binding signal (z-score),[22],-1.08
same,glycan array binding signal (z-score),[23],-0.685
same,glycan array binding signal (z-score),[24],-0.413
same,glycan array binding signal (z-score),[25],-0.831
same,glycan array binding signal (z-score),[26],-1.57
same,glycan array binding signal (z-score),[27],-0.982
same,glycan array binding signal (z-score),[28],-0.846
same,glycan array binding signal (z-score),[29],-0.642
same,glycan array binding signal (z-score),[30],-0.801
same,glycan array binding signal (z-score),[31],-0.921
same,glycan array binding signal (z-score),[32],1.09
same,glycan array binding signal (z-score),[33],0.261
same,glycan array binding signal (z-score),[34],-0.768
same,glycan array binding signal (z-score),[35],-0.004
same,glycan array binding signal (z-score),[36],-0.164
same,glycan array binding signal (z-score),[37],-0.058
same,glycan array binding signal (z-score),[38],-0.807

# 2 entries picked at random from those above, as already listed:
binder,measurement,setting,value
B1,glycan array binding signal (z-score),[34],-0.768
same,glycan array binding signal (z-score),[35],-0.004
